Results as given in patent US20250049660A1, “ENOL ETHER PROPERFUME” (FIRMENICH SA, priority 2021, published 2025).

Legend:
[1] = Dynamic headspace analysis of line-dried cotton treated with liquid laundry detergent; details: ± standard deviation; for Dynamic headspace concentration of 2-phenylethanol, profragrance / Dynamic headspace concentration of 2-phenylethyl formate, profragrance / Dynamic headspace concentration of 10-undecenal, profragrance / Dynamic headspace concentration of 3-(4-methylcyclohex-3-en-1-yl)butanal, profragrance / Dynamic headspace concentration of 3-(4-(tert-butyl)phenyl)-2-methylpropanal, profragrance / Dynamic headspace concentration of 2-methylundecanal, profragrance / Dynamic headspace concentration of 3-octanol, profragrance / Dynamic headspace concentration of 3-octyl formate, profragrance: liquid laundry detergent; for Dynamic headspace concentration of the perfumery raw material itself, reference: reference liquid laundry detergent with 0.075 mmol of each free volatile
[2] = Dynamic headspace analysis of line-dried cotton treated with liquid fabric softener; details: ± standard deviation; for Dynamic headspace concentration of 2-phenylethanol, profragrance / Dynamic headspace concentration of 2-phenylethyl formate, profragrance / Dynamic headspace concentration of 10-undecanal, profragrance / Dynamic headspace concentration of 3-(4-methylcyclohex-3-en-1-yl)butanal, profragrance / Dynamic headspace concentration of 3-(4-(tert-butyl)phenyl)-2-methylpropanal, profragrance / Dynamic headspace concentration of 2-methylundecanal, profragrance / Dynamic headspace concentration of 3-octanol, profragrance / Dynamic headspace concentration of 3-octanyl formate, profragrance: fabric softener; for Dynamic headspace concentration of the perfumery raw material itself, reference: reference fabric softener with 0.075 mmol of each free volatile

| Compound | Dynamic headspace concentration of 2-phenylethanol, profragrance ([1]; 60 min sample (60-75 min)) | Dynamic headspace concentration of 2-phenylethyl formate, profragrance ([1]; 60 min sample (60-75 min)) | Dynamic headspace concentration of 2-phenylethanol, profragrance ([1]; 120 min sample (120-135 min)) | Dynamic headspace concentration of 2-phenylethyl formate, profragrance ([1]; 120 min sample (120-135 min)) | Dynamic headspace concentration of 2-phenylethanol, profragrance ([2]; 60 min sample (60-75 min)) | Dynamic headspace concentration of 2-phenylethyl formate, profragrance ([2]; 60 min sample (60-75 min)) | Dynamic headspace concentration of 2-phenylethanol, profragrance ([2]; 120 min sample (120-135 min)) | Dynamic headspace concentration of 2-phenylethyl formate, profragrance ([2]; 120 min sample (120-135 min)) | Dynamic headspace concentration of the perfumery raw material itself, reference ([1]; 60 min sample (60-75 min)) | Dynamic headspace concentration of the perfumery raw material itself, reference ([1]; 120 min sample (120-135 min)) | Dynamic headspace concentration of the perfumery raw material itself, reference ([2]; 60 min sample (60-75 min)) | Dynamic headspace concentration of the perfumery raw material itself, reference ([2]; 120 min sample (120-135 min)) | also measured |
| --- | --- | --- | --- | --- | --- | --- | --- | --- | --- | --- | --- | --- | --- |
| C=CCCCCCCCCC=COCCc1ccccc1 [Compound 30, (2-(dodeca-1,11-dien-1-yloxy)ethyl)benzene] | 9.9 ± 3.0 ng/L | 75.2 ± 42.5 ng/L | 9.2 ± 0.8 ng/L | 55.0 ± 7.1 ng/L | 15.9 ± 2.6 ng/L | 112 ± 23.9 ng/L | 16.2 ± 3.4 ng/L | 97.7 ± 8.9 ng/L |  |  |  |  | Dynamic headspace concentration of 10-undecenal, profragrance ([1]; 60 min sample (60-75 min)): 132 ± 60.9 ng/L; Dynamic headspace concentration of 10-undecenal, profragrance ([1]; 120 min sample (120-135 min)): 115 ± 16.0 ng/L; Dynamic headspace concentration of 10-undecanal, profragrance ([2]; 60 min sample (60-75 min)): 222 ± 29.5 ng/L; Dynamic headspace concentration of 10-undecanal, profragrance ([2]; 120 min sample (120-135 min)): 213 ± 29.5 ng/L |
| CC(C=O)Cc1ccc(C(C)(C)C)cc1 (stereo not drawn) [3-(4-(tert-butyl)phenyl)-2-methylpropanal, reference compound] |  |  |  |  |  |  |  |  | 2.3 ± 1.3 ng/L | 2.9 ± 1.2 ng/L | 5.8 ± 2.5 ng/L | 8.2 ± 2.5 ng/L |  |
| CC1=CC[C@H](C(C)CC=COCCc2ccccc2)CC1 (stereo partly drawn) [Compound 34, (2-((4-((R)-4-methylcyclohex-3-en-1-yl)pent-1-en-1-yl)oxy)ethyl)benzene] | 6.3 ± 2.3 ng/L | 31.7 ± 7.6 ng/L | 6.4 ± 4.6 ng/L | 24.3 ± 12.5 ng/L | 19.7 ± 1.8 ng/L | 111 ± 13.0 ng/L | 23.7 ± 2.9 ng/L | 99.6 ± 21.1 ng/L |  |  |  |  | Dynamic headspace concentration of 3-(4-methylcyclohex-3-en-1-yl)butanal, profragrance ([1]; 60 min sample (60-75 min)): 17.3 ± 2.1 ng/L; Dynamic headspace concentration of 3-(4-methylcyclohex-3-en-1-yl)butanal, profragrance ([1]; 120 min sample (120-135 min)): 17.6 ± 10.6 ng/L; Dynamic headspace concentration of 3-(4-methylcyclohex-3-en-1-yl)butanal, profragrance ([2]; 60 min sample (60-75 min)): 58.1 ± 5.3 ng/L; Dynamic headspace concentration of 3-(4-methylcyclohex-3-en-1-yl)butanal, profragrance ([2]; 120 min sample (120-135 min)): 78.4 ± 5.3 ng/L |
| CC1=CCC(C(C)CC=O)CC1 (stereo not drawn) [3-(4-methylcyclohex-3-en-1-yl)butanal, reference compound] |  |  |  |  |  |  |  |  | 1.5 ± 0.3 ng/L | 1.9 ± 0.6 ng/L | 2.6 ± 0.5 ng/L | 5.3 ± 0.2 ng/L |  |
| C=CCCCCCCCCC=O [Compound 10-undecenal, 10-undecenal, reference compound] |  |  |  |  |  |  |  |  | 9.4 ± 1.3 ng/L | 10.2 ± 0.3 ng/L | 14.1 ± 2.5 ng/L | 17.9 ± 6.0 ng/L |  |
| CC(C=COCCc1ccccc1)Cc1ccc(C(C)(C)C)cc1 (stereo not drawn) [Compound 35, 1-(tert-butyl)-4-(2-methyl-4-phenethoxybut-3-en-1-yl)benzene] | 4.4 ± 0.27 ng/L | 36.9 ± 7.4 ng/L | 3.3 ± 0.3 ng/L | 23.2 ± 2.1 ng/L | 12.4 ± 1.1 ng/L | 129 ± 6.4 ng/L | 16.2 ± 1.3 ng/L | 145 ± 25.9 ng/L |  |  |  |  | Dynamic headspace concentration of 3-(4-(tert-butyl)phenyl)-2-methylpropanal, profragrance ([1]; 60 min sample (60-75 min)): 34.3 ± 8.8 ng/L; Dynamic headspace concentration of 3-(4-(tert-butyl)phenyl)-2-methylpropanal, profragrance ([1]; 120 min sample (120-135 min)): 32.3 ± 8.1 ng/L; Dynamic headspace concentration of 3-(4-(tert-butyl)phenyl)-2-methylpropanal, profragrance ([2]; 60 min sample (60-75 min)): 103 ± 32.7 ng/L; Dynamic headspace concentration of 3-(4-(tert-butyl)phenyl)-2-methylpropanal, profragrance ([2]; 120 min sample (120-135 min)): 128 ± 14.1 ng/L |
| CCCCCCCCCC(C)C=COC(CC)CCCCC (stereo not drawn) [Compound 29, 3-methyl-1-(octan-3-yloxy)dodec-1-ene] |  |  |  |  |  |  |  |  |  |  |  |  | Dynamic headspace concentration of 2-methylundecanal, profragrance ([1]; 60 min sample (60-75 min)): 119 ± 47.3 ng/L; Dynamic headspace concentration of 3-octanol, profragrance ([1]; 60 min sample (60-75 min)): 10.9 ± 1.3 ng/L; Dynamic headspace concentration of 3-octyl formate, profragrance ([1]; 60 min sample (60-75 min)): 16.2 ± 1.6 ng/L; Dynamic headspace concentration of 2-methylundecanal, profragrance ([1]; 120 min sample (120-135 min)): 150 ± 2.4 ng/L; Dynamic headspace concentration of 3-octanol, profragrance ([1]; 120 min sample (120-135 min)): 8.2 ± 2.5 ng/L; Dynamic headspace concentration of 3-octyl formate, profragrance ([1]; 120 min sample (120-135 min)): 12.2 ± 3.6 ng/L; Dynamic headspace concentration of 2-methylundecanal, profragrance ([2]; 60 min sample (60-75 min)): 465 ± 54.4 ng/L; Dynamic headspace concentration of 3-octanol, profragrance ([2]; 60 min sample (60-75 min)): 99 ± 38.4 ng/L; Dynamic headspace concentration of 3-octanyl formate, profragrance ([2]; 60 min sample (60-75 min)): 118 ± 31.6 ng/L; Dynamic headspace concentration of 2-methylundecanal, profragrance ([2]; 120 min sample (120-135 min)): 446 ± 54.4 ng/L; Dynamic headspace concentration of 3-octanol, profragrance ([2]; 120 min sample (120-135 min)): 91.5 ± 28.3 ng/L; Dynamic headspace concentration of 3-octanyl formate, profragrance ([2]; 120 min sample (120-135 min)): 104 ± 32 ng/L |
| CCCCCCCCCC(C)C=COCCc1ccccc1 (stereo not drawn) [Compound 25, (2-((3-methyldodec-1-en-1-yl)oxy)ethyl)benzene] | 12.1 ± 1.97 ng/L | 106 ± 18.2 ng/L | 11.5 ± 2.3 ng/L | 75.4 ± 11.5 ng/L | 9.2 ± 3.94 ng/L | 114 ± 15.1 ng/L | 11.1 ± 2.1 ng/L | 92.2 ± 69.2 ng/L |  |  |  |  | Dynamic headspace concentration of 2-methylundecanal, profragrance ([1]; 60 min sample (60-75 min)): 178 ± 11.7 ng/L; Dynamic headspace concentration of 2-methylundecanal, profragrance ([1]; 120 min sample (120-135 min)): 178 ± 24.4 ng/L; Dynamic headspace concentration of 2-methylundecanal, profragrance ([2]; 60 min sample (60-75 min)): 222 ± 43.4 ng/L; Dynamic headspace concentration of 2-methylundecanal, profragrance ([2]; 120 min sample (120-135 min)): 216 ± 46.7 ng/L |
